# Test results as given in article PMC8610991, “The encapsulin from Thermotoga maritima is a flavoprotein with a symmetry matched ferritin-like cargo protein” (Scientific Reports, 2021).
# B1: Thermotoga maritima ferritin-like protein (FLP) cargo (natural protein, UniProt Q9WZP3 1-114, looked up)
# chain: MADQYHEPVSELTGKDRDFVRALNSLKEEIEAVAWYHQRVVTTKDETVRKILEHNRDEEMEHAAMLLEWLRRNMPGWDEALRTYLFTDKPITEIEEETSGGSENTGGDLGIRKL
# notes: ferritin-like protein, native cargo of the Thermotoga maritima encapsulin; Decamer with fivefold symmetry; The map of the cargo (EMD-24002) has no atomic model of its own; a homologous FLP crystal structure (PDB 5DA5) was docked as a rigid body; also called cargo protein; ferritin-like cargo protein; copies: 10
# How the values were obtained:
# [1] = molecular target: Thermotoga maritima encapsulin shell protein W90E (Thermotoga maritima); test: co-purification; shell (W90E) and FLP co-expressed in E. coli; encapsulin purified by heat step, ammonium sulfate, ultracentrifugation and Superose 6; purified sample said to contain the FLP cargo; both purified
# [2] = molecular target: Thermotoga maritima encapsulin shell protein (Thermotoga maritima); test: cryo-EM structure; FLP-loaded encapsulin, co-expressed in E. coli and purified as a complex; 2 mg/mL, 0.05% NP-40; 2D classes, I1 reconstruction of the shell (3.3 Å), C1 reconstruction, symmetry expansion and focused classification of the FLP at a pentameric vertex (shell ~3.5 Å, FLP ~7 Å); both purified
binder,measurement,setting,value
B1,binding,[1],binds
same,binding,[2],binds

# These are yes or no findings as the source states them, for the method shown. Binding can be weak; no strength is given. For some assays here: In cells and extracts the contact can be indirect.
